# Laboratory results: PubChem BioAssay AID1117319 (Southern Research Institute, 2015)
# Chains of the proteins cited; added tags and fusions are not shown. Lines headed by an entry give the natural chain unless they say otherwise; changes in a name come on top.
# UniProt P69720: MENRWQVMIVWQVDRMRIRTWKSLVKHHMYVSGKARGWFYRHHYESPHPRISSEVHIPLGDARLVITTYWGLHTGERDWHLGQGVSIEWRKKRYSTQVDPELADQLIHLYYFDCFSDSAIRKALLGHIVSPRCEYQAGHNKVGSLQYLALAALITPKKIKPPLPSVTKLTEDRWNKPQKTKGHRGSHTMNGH
# UniProt P69721: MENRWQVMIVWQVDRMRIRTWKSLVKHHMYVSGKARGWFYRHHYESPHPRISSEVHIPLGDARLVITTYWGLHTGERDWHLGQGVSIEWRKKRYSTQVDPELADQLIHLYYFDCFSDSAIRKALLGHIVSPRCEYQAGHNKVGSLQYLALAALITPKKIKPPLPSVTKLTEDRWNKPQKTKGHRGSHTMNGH
# UniProt P69722: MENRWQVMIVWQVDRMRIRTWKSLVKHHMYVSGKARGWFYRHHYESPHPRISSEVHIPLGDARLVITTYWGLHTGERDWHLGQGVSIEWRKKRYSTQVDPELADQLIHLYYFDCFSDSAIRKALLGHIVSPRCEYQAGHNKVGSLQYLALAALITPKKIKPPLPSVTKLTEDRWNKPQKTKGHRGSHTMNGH
# UniProt P69723: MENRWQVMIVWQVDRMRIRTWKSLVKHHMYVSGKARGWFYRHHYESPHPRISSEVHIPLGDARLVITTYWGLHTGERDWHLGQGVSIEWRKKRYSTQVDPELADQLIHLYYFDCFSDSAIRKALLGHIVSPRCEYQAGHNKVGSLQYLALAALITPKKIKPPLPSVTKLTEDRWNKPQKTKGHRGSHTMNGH
# UniProt Q9HC16: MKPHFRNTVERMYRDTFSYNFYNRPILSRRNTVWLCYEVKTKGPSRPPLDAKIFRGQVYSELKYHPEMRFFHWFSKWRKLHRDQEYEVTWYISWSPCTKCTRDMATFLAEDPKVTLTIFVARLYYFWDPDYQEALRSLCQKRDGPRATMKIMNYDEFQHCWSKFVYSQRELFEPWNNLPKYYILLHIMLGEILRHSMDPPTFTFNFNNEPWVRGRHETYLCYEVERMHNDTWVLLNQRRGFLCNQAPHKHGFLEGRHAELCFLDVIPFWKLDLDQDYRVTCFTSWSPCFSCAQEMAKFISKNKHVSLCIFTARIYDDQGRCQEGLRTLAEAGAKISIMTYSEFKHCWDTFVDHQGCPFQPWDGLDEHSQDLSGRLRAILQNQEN
# Values joined by “and” are separate entries in the source; they are usually repeats but may differ in a detail not shown here. Equal values may be shown once. The campaign covered roughly 260,000 compounds. About 1,500 (0.58%) were called active. Inconclusive results, whose numbers are uncertain, are shown with a selection of clear calls.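 Rule for the calls: active = inhibition above a set limit at one or more doses, reproduced on every date tested; inconclusive = results disagree between test dates, or hit never tested in dose response; inactive = the rest.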
# Target: Virion infectivity factor (Human immunodeficiency virus type 1 group M subtype B (isolate BH10)) + Virion infectivity factor (Human immunodeficiency virus type 1 group M subtype B (isolate BRU/LAI)) + Virion infectivity factor (Human immunodeficiency virus type 1 group M subtype B (isolate PCV12)) + Virion infectivity factor (Human immunodeficiency virus type 1 group M subtype B (isolate HXB2)) + DNA dC->dU-editing enzyme APOBEC-3G (Homo sapiens) (UniProt P69720+P69721+P69722+P69723+Q9HC16)
# Experiment: inhibitors of Vif binding to APOBEC3G peptide, primary screen, biochemical, TR-FRET, GST-Vif 1-94, biotin-A3G peptide, dose response retest (AID 1117319);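 note: Vif residues 1-94 fused to GST binding biotinylated APOBEC3G peptide 110-148; 0% = full assay without inhibitor and 100% = GST in place of GST-Vif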
# Conditions: stronger effect = higher value
row,Compound,inhibition
1,COCCNC(=O)CN1CCC(NC(=O)Nc2ccccc2)CC1,inconclusive: 37.2%
2,CCC(C(=O)O)N1C(=O)/C(=C/c2cccn2C)SC1=S (stereo not drawn),inactive: 21.2%
3,Cc1cccc(S(=O)(=O)c2c(C)cc(C)nc2Cl)c1,inactive: -4.17%
4,CCNc1cc(=O)n(C)c(=O)n1C,inconclusive: 38.9%
5,Cc1cc(C)c2c(c1)C1C=CCC1C(c1ccc(S(=O)(=O)N3CCOCC3)cc1)N2 (stereo not drawn),inactive: 27.8% and inactive: -8.85%
6,COc1cccc(F)c1C(=O)NC(=O)Nc1ccc2nc(C)oc2c1,inconclusive: 60.4%
7,COc1ccc(/C(C)=N/NC(=O)c2ccc(NS(=O)(=O)c3cccs3)cc2)cc1,inconclusive: 33.7%
8,CN=c1scc(-c2ccc(F)cc2)n1/N=C/c1ccc(O)c(O)c1,inconclusive: 63.5%
9,Cc1cccc(N(C(=O)CS(=O)CC(=O)Nc2ccc3c(c2)OCO3)C(C)C(=O)NC2CCCC2)c1C (stereo not drawn),inconclusive: 54.5%
10,Cn1cc(CN2C[C@]3(C)C[C@H]2CC(C)(C)C3)c(-c2ccc3c(c2)OCCO3)n1,inconclusive: 45.6%
11,CCCCC(=O)Nc1ccccc1C#N,inconclusive: 43.1%
12,Cc1nnc(-c2ccc(Cl)cc2)nc1NCCN(C)C,inconclusive: 38.1%
13,COc1ccc(C2=C(CC(=O)O)C(=O)CC2)cc1,inconclusive: 41.5%
14,c1ccc2oc(SCc3cn4ccccc4n3)nc2c1,inconclusive: 54.1%
15,CCCCNC(=O)c1ccc2c(c1)N(CC)C(=O)c1ccccc1S2(=O)=O,inconclusive: 59.9%
16,Cc1ccc(C2(C)NC(=O)N(CC(=O)Nc3ccc4[nH]c(=O)[nH]c4c3)C2=O)cc1 (stereo not drawn),inconclusive: 59.2%
17,CC(=O)NCCOC(=O)Nc1sc(=S)n(C)c1C,inconclusive: 36.4%
18,CCN1CCN(c2c(/C=C3\SC(=S)N(Cc4ccco4)C3=O)c(C)c(C#N)c(=O)n2C)CC1,inconclusive: 46.3%
19,CCc1nn2c(NCCOC)cc(C)nc2c1-c1ccc(F)cc1,inactive: -2.39%
20,COc1ccc(-c2noc(-c3ccccc3C(=O)N3CCOCC3)n2)cc1,inconclusive: 48.8%
21,CCC(=O)N1c2ccccc2NC2=C(C(=O)CCC2)C1c1ccc(N(C)C)cc1 (stereo not drawn),inconclusive: 46.7%
22,COc1ccc2c(c1)O[C@H](c1ccc3c(c1)OCO3)[C@@H](OC(=O)N[C@H]1CCCc3ccccc31)C2=O,inactive: 4.66%

row,Compound,inhibition
1,CCOC(=O)Cn1nnnc1CN(Cc1ccc(OC)cc1)Cc1cc2cc(C)ccc2[nH]c1=O,inconclusive: 34.4%
2,O=C1OC(/C=C/c2ccc(Cl)cc2)=NC/1=C/c1ccco1,inconclusive: 48.6%
3,O=C(Cn1c(=O)n(Cc2ccco2)c(=O)c2c3c(sc21)CCCCC3)c1ccccc1,inconclusive: 40.3%
4,CCC(c1ccccc1)C(CC)c1cc(O)c(O)c(O)c1 (stereo not drawn),inactive: 27.3%
5,CC(C)=CC(=O)OCC(=O)Nc1cc([N+](=O)[O-])ccc1F,inconclusive: 37.6%
6,OC(CN1C2=NCCN2c2ccccc21)c1ccc2c(c1)OCO2 (stereo not drawn),inconclusive: 34.8%
7,O=C(NCc1cccs1)c1cc(-c2cccc(Cl)c2)on1,inconclusive: 60.3%
8,Cc1nc(C)n(C(C)CC(=O)O)n1 (stereo not drawn),inconclusive: 41.6%
9,COc1cc(/C=C(/NC(=O)c2ccccc2)C(=O)Nc2ccc(O)cc2)c([N+](=O)[O-])cc1OC,inconclusive: 36.2%
10,O=C1CC(c2ccco2)CC(O)=C1C=NCCN1CCN(C(=O)Nc2ccc(Cl)cc2)CC1 (stereo not drawn),inactive: -5.15%
11,O=C(NC1CC1)C1=C[C@@H](c2ccc3c(c2)OCO3)C[C@@H](OCc2ccc(CO)cc2)O1,inconclusive: 41.6%
12,CC1CCN(S(=O)(=O)c2cccc(C(=O)O)c2)CC1,inconclusive: 50.3%
13,Cc1ccc(S(=O)(=O)N2CCN(C(=O)CN3CCCCC3)C2C(C)C)cc1 (stereo not drawn),inconclusive: 53.4%
14,CC(=O)c1ccc(NC(=O)c2cccc(NC(=O)c3ccccc3)c2)cc1,inactive: -13.5%
15,O=C(Nc1nc2ccccc2[nH]1)c1cccc([N+](=O)[O-])c1,inconclusive: 39.2%
16,O=C(/C=C/Nc1cccc(C(F)(F)F)c1)C(F)(F)F,inconclusive: 36.6%
17,Cc1ccc2[nH]c(=O)c(C(c3nnnn3C3CCCC3)N3CCCc4ccccc43)cc2c1 (stereo not drawn),inactive: 16.5%
18,CC(=O)N1CCN(c2ccc(NC(=O)c3ccc4c(c3)OCCO4)cc2Cl)CC1,inconclusive: 37%
19,Cc1ccc(-c2cc(C(=O)NCc3ccccn3)no2)cc1,inconclusive: 47%
20,COC(=O)CN1C(=S)N(C)C(=O)/C1=C/c1cccs1,inconclusive: 47.4%
21,Cc1ccc(-c2nc(CS(=O)CC(=O)NCCN3CCCCCC3)c(C)o2)cc1 (stereo not drawn),inactive: -1.41%
22,CC(C)c1ccc(C(CC(=O)c2ccc(Cl)cc2)C(=O)O)cc1 (stereo not drawn),inconclusive: 45.7%

row,Compound,inhibition
1,COc1ccc(OC)c(CCNC(=O)Cn2cccc2C(=O)c2ccccc2C)c1,inconclusive: 34.1%
2,CCc1ccc(/C=C2\Oc3c(ccc(O)c3CN3CCN(C)CC3)C2=O)cc1,inactive: 29.7%
3,CCCCn1c(SCC(=O)c2ccc(OCC)cc2)nc2cc(S(N)(=O)=O)ccc21,inactive: 3.73%
4,COc1cc(/C=C/c2ccc3cccc([N+](=O)[O-])c3n2)ccc1OCC(=O)O,inconclusive: 45.6%
5,CN(C)S(=O)(=O)c1ccc(Cl)c(NC(=O)CN2CCc3ccccc3C2)c1,inconclusive: 41.6%
6,Cc1sc(NC(=S)NC(=O)C2CCCCC2)c(C(N)=O)c1C,inconclusive: 35.7%
7,O=C(Cc1cc(=O)[nH]c(=O)[nH]1)NCCN1CCOCC1,inconclusive: 34.3%
8,CCN(CC)CCCNCC(=O)Nc1ccc2c(c1)CCC2,inconclusive: 58.5%
9,Cc1cc(NC(=O)CCSc2ccccc2)ccc1Br,inconclusive: 54.5%
10,O=C(/C=C/c1ccc(S(=O)(=O)N2CCOCC2)cc1)NCc1ccc(Cl)cc1,inconclusive: 33.7%
11,O=C(COC(=O)c1c[nH]c(=O)[nH]c1=O)Nc1ccccc1,inconclusive: 50.9%
12,COCCn1nnnc1C(c1ccccn1)N1CCN(c2cc(Cl)ccc2C)CC1 (stereo not drawn),inconclusive: 38.1%
13,CC(=O)Nc1ccc(NC(=O)COC(=O)Cc2cccs2)cc1,inconclusive: 40%
14,Cc1ccc(OCCCC(=O)Nc2ccc(S(=O)(=O)Nc3cc(C)on3)cc2)cc1,inconclusive: 36.6%
15,Cc1c(C(=O)NCc2ccccn2)sc2nc(-c3ccccc3)cn12,inconclusive: 37.9%
16,Cc1ccc(C)n1-c1ccc(N2CCOCC2)cc1,inconclusive: 60.8%
17,CCOC(=O)C1CCCN(C(=O)C2CCN(c3nnc(-n4cccc4)s3)CC2)C1 (stereo not drawn),inconclusive: 54.2%
18,Cc1ccc(N2C(=O)CS/C2=C(\C(Cl)=C(Cl)Cl)[N+](=O)[O-])cc1,inconclusive: 36.2%
19,O=C(N/N=C/c1ccc(OC(F)F)cc1)c1cccc(S(=O)(=O)N2CCOCC2)c1,inconclusive: 47.9%
20,COc1ccc(-c2nnc(SCC(N)=O)n2N)cc1,inactive: -2.53%
21,COc1ccc(N2CCC(CNS(=O)(=O)c3cccc(C(F)(F)F)c3)C2)cc1 (stereo not drawn),inconclusive: 71.5%
22,CC(CN(C(N)=O)c1ccccc1O)C(=O)O (stereo not drawn),inactive: 17.1%

row,Compound,inhibition
1,CCSc1cc(C)nc2c(-c3ccccc3)cnn12,inconclusive: 40.9%
2,C#C[C@]1(O)CC[C@H]2[C@@H]3CCc4cc(O)ccc4[C@H]3CC[C@@]21C,inconclusive: 45.5%
3,CC(C)(C)n1nc2c(c1NC(=O)c1cc([N+](=O)[O-])ccc1Cl)CS(=O)(=O)C2,inconclusive: 56.1%
4,Clc1ccc2c(NCc3ccccn3)ncnc2c1,inconclusive: 57.6%
5,O=C(O)c1cc(N=Nc2c(O)[nH]c3ccc([N+](=O)[O-])cc23)ccc1Cl,inactive: 10%
6,Cc1cc(C)nc(N/N=C/c2ccc(Cl)cc2)n1,inactive: -3.39%
7,O=C1NN(c2ccc(F)cc2)C(=O)/C1=C\C=C\c1ccco1,inconclusive: 34.7%
8,O=C1CN2C(=N1)N(Cc1ccccc1)c1ccccc12,inconclusive: 57.7%
9,O=C(NCc1ccccc1)c1cccc(Br)n1,inconclusive: 36.8%
10,Cc1cc(N/N=C/c2ccncc2)nc2ccccc12,inactive: 8.69%
11,O=C(N/N=C/C=C/c1ccccc1)c1ccccc1Br,inconclusive: 36.1%
12,COc1ccc(-c2cc(C3CC3)nc3sc(C#N)c(N)c23)cc1,inconclusive: 60%
13,CCCCN(C(=O)c1cc(-c2ccco2)nc2ccccc12)c1c(N)n(CCCC)c(=O)[nH]c1=O,inactive: 22.2%
14,Cn1c(SCC(=O)NCC2CCCO2)nnc1-c1ccc(S(=O)(=O)N2CCCC2)cc1 (stereo not drawn),inconclusive: 49.1%
15,COc1cc(/C=C/c2cc(C(=O)O)c3ccccc3n2)cc(OC)c1O,inconclusive: 40.1%
16,COc1ccc(N2C(=O)CC(N(CCc3ccc(S(N)(=O)=O)cc3)C(=S)Nc3ccccc3)C2=O)cc1 (stereo not drawn),inconclusive: 61.6%
17,CCCn1c(NCc2cccc(OC)c2O)nc2ccccc21,inconclusive: 37.7%
18,Cc1cccc(C)c1NC(=O)CSc1nc(-c2ccco2)cc(C(F)(F)F)n1,inactive: -1.99%
19,Cc1nc2c(=O)n(-c3cccc(C(F)(F)F)c3)nc(C)c2s1,inconclusive: 50.6%
20,N#Cc1cc(Br)ccc1N=C1CCCN1c1ccccc1,inconclusive: 44.3%
21,Cc1csc(Sc2ccc([N+](=O)[O-])cc2C(=O)OCC(=O)NC2CCCC(C)C2C)n1 (stereo not drawn),inconclusive: 48.6%
22,CCOP(=O)(OCC)/C(C#N)=C(\O)c1ccc(OC)cc1,inconclusive: 42.4%
